Patent publication US9795626B2, “Cancer therapy using miRNAs” (THE UNIVERSITY OF WESTERN AUSTRALIA, priority 2012, dated 2017)
At least one structure is not confirmed: it was looked up by name or label, or the drawing left a doubt.

System: melanoma cell lines (SK-MEL-28, WM266-4, MM96L and A2058)
Experiment: Drug sensitivity assay (cell viability after 4 days of drug)
Assay type: cell-based
Details: cell lines harbouring p53 mutations; accurate IC50 values could not be determined

**Q.** For `Cn1nnc2c(C(N)=O)ncn2c1=O` [TMZ, temozolomide], which sensitivity to treatment is on record?
**A.** highly resistant
